Data published in article PMC10851605.
These are yes or no findings as the source states them, for the method shown. Binding seen in cells or lysates may run through a third protein. These calls come from enrichment with a bait or labelling near it, and not all partners need be listed.

Sequences of proteins named here, by UniProt entry; tags and fusion partners are left off.
UniProt P29350: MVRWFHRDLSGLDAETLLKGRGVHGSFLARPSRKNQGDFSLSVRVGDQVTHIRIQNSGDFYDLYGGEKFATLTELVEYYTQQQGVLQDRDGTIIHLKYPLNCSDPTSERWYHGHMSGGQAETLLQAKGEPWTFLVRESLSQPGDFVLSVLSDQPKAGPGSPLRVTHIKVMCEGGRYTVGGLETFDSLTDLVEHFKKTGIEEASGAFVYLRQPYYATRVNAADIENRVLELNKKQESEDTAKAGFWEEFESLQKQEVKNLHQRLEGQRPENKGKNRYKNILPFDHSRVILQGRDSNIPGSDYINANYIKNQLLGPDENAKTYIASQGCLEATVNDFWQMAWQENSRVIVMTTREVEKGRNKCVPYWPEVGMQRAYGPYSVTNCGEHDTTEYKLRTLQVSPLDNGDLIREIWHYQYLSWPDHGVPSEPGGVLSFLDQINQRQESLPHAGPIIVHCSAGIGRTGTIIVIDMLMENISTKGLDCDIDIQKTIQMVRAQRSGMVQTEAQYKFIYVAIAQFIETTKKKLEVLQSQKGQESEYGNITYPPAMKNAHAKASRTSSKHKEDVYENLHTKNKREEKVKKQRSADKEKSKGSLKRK
UniProt P14618: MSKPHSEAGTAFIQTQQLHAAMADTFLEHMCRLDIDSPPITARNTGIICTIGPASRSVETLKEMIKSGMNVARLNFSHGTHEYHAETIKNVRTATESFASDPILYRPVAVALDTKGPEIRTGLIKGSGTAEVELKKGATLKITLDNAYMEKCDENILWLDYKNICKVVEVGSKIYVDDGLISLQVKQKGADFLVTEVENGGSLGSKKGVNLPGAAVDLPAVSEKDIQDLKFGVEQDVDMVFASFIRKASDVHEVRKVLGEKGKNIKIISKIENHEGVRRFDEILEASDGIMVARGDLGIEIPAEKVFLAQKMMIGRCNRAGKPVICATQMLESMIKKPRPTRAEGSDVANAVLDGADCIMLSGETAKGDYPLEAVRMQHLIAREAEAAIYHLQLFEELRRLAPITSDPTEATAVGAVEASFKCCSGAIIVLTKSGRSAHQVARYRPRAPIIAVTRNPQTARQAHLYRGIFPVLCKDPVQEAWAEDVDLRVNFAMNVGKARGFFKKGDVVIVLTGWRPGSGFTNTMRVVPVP

Target: SHP1 (human (endogenous in Jurkat)) (UniProt P29350)
Experiment: affinity purification with mass spectrometry; endogenous SHP1 captured with SHP1 antibody on protein A/G agarose beads from lysate of Jurkat cells treated with P5C; bound proteins identified by LC/MS-MS

For “pyruvate kinase M2 (PKM2) (from UniProt P14618 1-531) (enzyme)”, which binding is on record?
The binding was “binds”.
